Counter-ions that a name gives are not always drawn. The list shows a part of the results. Cut-off read from the data, not from the text of the source: active = 0.5 or less and inactive = the rest. Many values rest on one well or one pass, so single values are uncertain.
tested on: SK-MEL-28; assay: EEF2K protein level normalised to actin (western blot) after treatment (ratio (EEF2K/Actin)); higher = more EEF2K protein remaining (less EEF2K suppression); conditions: 5 µM; 24 h

| Compound | EEF2K protein level normalised to actin |
| --- | --- |
| CCCCC1C(=O)N(c2ccccc2)N(c2ccccc2)C1=O [Phenylbutazone] | inactive: 1 |
| CN1CCN(c2ccc(C(=O)Nc3n[nH]c4ccc(Cc5cc(F)cc(F)c5)cc34)c(NC3CCOCC3)c2)CC1 [Entrectinib (RXDX-101)] | inactive: 3.16 |
| COC(=O)c1ccc2c(C(=Nc3ccc(N(C)C(=O)CN4CCN(C)CC4)cc3)c3ccccc3)c(O)[nH]c2c1 [Nintedanib Ethanesulfonate Salt] | inactive: 0.59 |
| Nc1nc(Cl)nc2c1ncn2[C@H]1C[C@H](O)[C@@H](CO)O1 [Cladribine] | inactive: 3.95 |
| CN(C)C(=O)c1cc2cnc(Nc3ccc(N4CCNCC4)cn3)nc2n1C1CCCC1 [Ribociclib (LEE011)] | inactive: 1.85 |

Reference: the supplement of paper PMC8858631
